The text below walks through data of US20220363689A1, “INHIBITOR OF BTK AND MUTANTS THEREOF” (Newave Pharmaceutical Inc., priority 2019, published 2022).

Sequences of proteins named here, by UniProt entry; tags and fusion partners are left off. A change or cut given only in a name is not applied to a line headed by its entry.
UniProt Q06187, whole entry: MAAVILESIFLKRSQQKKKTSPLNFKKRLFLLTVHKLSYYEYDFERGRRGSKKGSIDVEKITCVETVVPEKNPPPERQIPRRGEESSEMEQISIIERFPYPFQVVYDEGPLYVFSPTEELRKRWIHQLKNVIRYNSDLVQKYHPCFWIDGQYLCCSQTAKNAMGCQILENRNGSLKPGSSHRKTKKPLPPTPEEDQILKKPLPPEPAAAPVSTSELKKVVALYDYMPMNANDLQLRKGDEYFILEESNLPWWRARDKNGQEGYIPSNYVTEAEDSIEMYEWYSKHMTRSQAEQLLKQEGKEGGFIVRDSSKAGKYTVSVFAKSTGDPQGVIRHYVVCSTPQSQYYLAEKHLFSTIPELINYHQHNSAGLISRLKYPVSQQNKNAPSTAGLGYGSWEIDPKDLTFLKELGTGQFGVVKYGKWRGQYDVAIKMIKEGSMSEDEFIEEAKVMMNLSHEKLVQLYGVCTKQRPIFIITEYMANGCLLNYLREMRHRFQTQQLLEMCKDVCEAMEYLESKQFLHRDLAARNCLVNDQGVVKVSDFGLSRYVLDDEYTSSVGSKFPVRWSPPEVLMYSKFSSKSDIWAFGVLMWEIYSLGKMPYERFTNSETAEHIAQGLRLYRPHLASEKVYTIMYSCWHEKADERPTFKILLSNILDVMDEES
UniProt Q06187, whole entry C481S: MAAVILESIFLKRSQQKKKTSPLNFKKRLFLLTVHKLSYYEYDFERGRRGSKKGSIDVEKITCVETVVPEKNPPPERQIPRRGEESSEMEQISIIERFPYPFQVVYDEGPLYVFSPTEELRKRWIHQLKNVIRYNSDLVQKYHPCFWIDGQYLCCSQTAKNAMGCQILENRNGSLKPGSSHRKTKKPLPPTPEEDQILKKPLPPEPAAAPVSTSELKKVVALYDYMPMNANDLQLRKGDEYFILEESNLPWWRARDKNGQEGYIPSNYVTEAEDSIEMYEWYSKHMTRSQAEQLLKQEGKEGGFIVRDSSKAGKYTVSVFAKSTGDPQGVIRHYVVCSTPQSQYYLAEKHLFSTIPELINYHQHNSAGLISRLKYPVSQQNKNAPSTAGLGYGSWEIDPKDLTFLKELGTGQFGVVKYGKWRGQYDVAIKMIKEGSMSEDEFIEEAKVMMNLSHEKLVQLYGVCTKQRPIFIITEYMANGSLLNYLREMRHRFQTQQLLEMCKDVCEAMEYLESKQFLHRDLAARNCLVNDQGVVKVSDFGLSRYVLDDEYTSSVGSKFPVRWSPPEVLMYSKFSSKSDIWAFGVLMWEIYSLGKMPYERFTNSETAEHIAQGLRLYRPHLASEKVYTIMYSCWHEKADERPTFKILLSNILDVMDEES

Common to all, as to type: biochemical
Assay [1] addresses T1, WT BTK (Homo sapiens, UniProt Q06187). The assay is described as follows: In vitro dialysis assay (irreversibility assay), WT BTK. The settings on record: reversible or irreversible/covalent inhibition after 24 h dialysis.
Assay [2] addresses T1, WT BTK. The assay is described as follows: Caliper-based kinase assay, WT BTK. To be noted: read-out: WT BTK IC50 (nM) (irreversible inhibition); 0.5 nM enzyme, ATP 16 μM, room temperature 3 h.
The next assay has as its target C481S Btk (Homo sapiens, UniProt Q06187, C481S). The assay is described as follows: Caliper-based kinase assay, C481S BTK. To be noted: read-out: C481S BTK IC50 (nM) (reversible inhibition); 0.5 nM enzyme, ATP 16 μM, room temperature 3 h.

Each structure is given as a SMILES string. Structures were worked out from names or drawings and are uncertain.

Take `C=CC(=O)Nc1cc(Nc2nc(-c3ccnc(N4CCn5c(cc6c5CC(C)(C)C6)C4=O)c3CO)cn(C)c2=O)ccc1N1CCC(N2CCC(F)(F)CC2)C[C@@H]1C` (stereo partly drawn): the “Conclusion (WT BTK)” value on WT BTK [1] is “Irreversible/covalent inhibition”. Moreover, the concentration for half-maximal inhibition (IC50) (as a rule, the concentration that gives 50% inhibition) was determined as 0.058 nM at WT BTK [2] and 0.4 nM at C481S Btk.
